{"source": "PubChem BioAssay AID504467", "about": "(National Center for Advancing Translational Sciences (NCATS), 2011)", "note": "Screen size: about 330,000 compounds; about 7,700 (2.3%) were called active. The inconclusive results got no clear call from the source; some entries with a clear call stand among them for comparison. The call rests on the fitted dose curve; in most records, active means well fitted inhibition curve with a large enough effect; inconclusive means small, poorly fitted or top-dose-only effect, or effect the other way; inactive means flat fitted curve, though single readings scatter. Potencies of inconclusive entries are doubtful fits and often do not repeat. On the % scale 0 is the no-effect control and ±100 the full control effect; potency means the concentration at half of the fitted maximal effect."}
{"assay": "qHTS screen for small molecules that inhibit ELG1-dependent DNA repair in human embryonic kidney (HEK293T) cells expressing luciferase-tagged ELG1; further: nearly all actives have a fitted effect of over 55% in size", "conditions": "HEK293T ELG1-luciferase reporter, luminescence, 16 h, DNA damage induced by 5-fluorouridine; activity change, negative = inhibition: at 46.1 µM (top of the series)", "in_short": "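Reporter activity after DNA damage by 5-fluorouridine is monitored. Compound-treated cells incubate 16 hr at 37 °C, then ONE-Glo is added for 30 min before luminescence reading.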"}
{"smiles": "Oc1ccccc1CNc1ccc(OC(F)(F)F)cc1", "Potency": "inconclusive: 11.6 µM [activator, partial curve, poor fit]"}
{"smiles": "CCCC1CCC(c2nc(-c3cccnc3)no2)CC1", "note": "(centres undefined)", "Potency": "inconclusive: 16.4 µM [activator, partial curve]"}
{"smiles": "COc1ccccc1NC(=O)CCCCCN1C(=O)c2cccc3cccc(c23)C1=O", "Potency": "inconclusive: 23.1 µM [inhibitor, partial curve]"}
{"smiles": "COc1ccc(OC)c(C(=O)NC(CC(N)=O)c2ccc(N3CCN(c4ccc(F)cc4)CC3)c([N+](=O)[O-])c2)c1", "note": "(centres undefined)", "activity change, negative = inhibition": "inactive: -5.7%"}
{"smiles": "Cc1cccc(C(=O)O[C@H]2[C@H](C)NS(=O)(=O)[C@H]3CC4C=C[C@]23O4)c1", "Potency": "inconclusive: 23.1 µM [inhibitor, partial curve, poor fit]"}
{"smiles": "CC1CCN(C(=O)CSc2nnc(-c3cccs3)o2)CC1", "Potency": "inconclusive: 29.1 µM [activator, single point]"}
{"smiles": "CCC(=O)N1CCN(c2ccc(NC(=O)COc3cccc(C)c3C)cc2)CC1", "Potency": "inconclusive: 29.1 µM [inhibitor, single point]"}
{"smiles": "Cc1cccc2cc(CN(Cc3cccs3)C(c3nnnn3C3CCCC3)C(C)C)c(=O)[nH]c12", "note": "(centres undefined)", "Potency": "active: 11.6 µM"}
{"smiles": "Cc1ccc(-c2nc(N/N=C/c3ccccc3[N+](=O)[O-])c3ccccc3n2)cc1", "Potency": "inconclusive: 2.06 µM [activator, partial curve]"}
{"smiles": "O=C(COc1ccccc1[N+](=O)[O-])Nc1cccc(S(=O)(=O)NC2=NCCCCC2)c1", "Potency": "inconclusive: 14.6 µM [inhibitor, partial curve, poor fit]"}
{"smiles": "COc1ccc(N(C(=O)C(C)C)S(=O)(=O)c2cccs2)cc1", "Potency": "inconclusive: 29.1 µM [inhibitor, partial curve, poor fit]"}
{"smiles": "CCC(=O)Nc1ccc(NC(=O)c2oc3ccccc3c2C)cc1", "activity change, negative = inhibition": "inactive: 16.6%"}
{"smiles": "O=C1CCOc2cc(OCc3ccccc3)ccc21", "Potency": "inconclusive: 7.31 µM [activator, partial curve]"}
{"smiles": "CCOc1cc(/C=N/O)ccc1OCc1ccccc1F", "Potency": "inconclusive: 16.4 µM [activator, partial curve]"}
{"smiles": "CC1CC1C(=O)OCC(=O)Nc1cccc(Br)c1", "note": "(centres undefined)", "activity change, negative = inhibition": "inactive: 17.1%"}
{"smiles": "CC(OC(=O)c1cccc([N+](=O)[O-])c1)C(=O)NCc1ccc2c(c1)OCO2", "note": "(centres undefined)", "Potency": "inconclusive: 0.164 µM [activator, full curve]"}
{"smiles": "N/C(=N\\OC(=O)COc1ccc(Cl)cc1Cl)c1ccccn1", "Potency": "inconclusive: 2.31 µM [activator, full curve]"}
{"smiles": "CCOC(=O)N1CCN(S(=O)(=O)c2ccc(C)cc2)C1c1ccccc1", "note": "(centres undefined)", "Potency": "active: 25.9 µM"}
{"smiles": "CCCN1CCN(CCCNC(=O)Cn2nc(-c3ccc(C)cc3)ccc2=O)CC1", "activity change, negative = inhibition": "inactive: 17.3%"}
{"smiles": "O=C(CC1c2ccccc2Oc2ccccc21)N1CCN(c2ccccn2)CC1", "Potency": "inconclusive: 23.1 µM [inhibitor, single point]"}
{"smiles": "O=C(NNC(=O)C1CCN(Cc2ccccc2)CC1)c1cccs1", "activity change, negative = inhibition": "inactive: -1.13%"}
{"smiles": "O=C(Nc1ccc2c(c1)OCO2)c1ccccc1", "Potency": "inconclusive: 4.61 µM [activator, partial curve]"}
{"smiles": "COc1ccc(Cn2c(CCC(=O)Nc3ccccc3)nc3cccnc32)cc1", "activity change, negative = inhibition": "inactive: -23%"}
{"smiles": "C=CCSc1nnc(-c2cnn(-c3ccccc3)c2-n2cccc2)n1C", "activity change, negative = inhibition": "inactive: 5.71%"}
{"smiles": "Cc1ccccc1-n1c(SCC(=O)NCC2CCCO2)nc2c([nH]c3ccccc32)c1=O", "note": "(centres undefined)", "Potency": "inconclusive: 29.1 µM [inhibitor, single point]"}
{"smiles": "O=C(Nc1cccc(Cl)c1)c1cccc(Oc2ccc([N+](=O)[O-])cc2Cl)c1", "Potency": "inconclusive: 18.4 µM [inhibitor, partial curve, poor fit]"}
{"smiles": "CCCCN(C)C(=O)Cn1cnc2sc(C)cc2c1=O", "activity change, negative = inhibition": "inactive: 5.52%"}
{"smiles": "CN(C)CCCNS(=O)(=O)c1ccc(-n2nnc3ccccc32)c([N+](=O)[O-])c1", "activity change, negative = inhibition": "inactive: 8.48%"}
{"smiles": "CCCNC(=O)Cn1cnc2sc(C(=O)NCCCN3CCOCC3)c(C)c2c1=O", "Potency": "inconclusive: 32.6 µM [activator, partial curve, poor fit]"}
{"smiles": "O=C(Nc1cc(S(=O)(=O)N2CCOCC2)ccc1Cl)c1cc([N+](=O)[O-])ccc1Cl", "Potency": "inconclusive: 29.1 µM [inhibitor, single point]"}
{"smiles": "CC(=O)N1c2ccc(S(=O)(=O)N3CCC(C(=O)Nc4cccc(F)c4)CC3)cc2CC1C", "note": "(centres undefined)", "Potency": "inconclusive: 9.2 µM [inhibitor, partial curve]"}
{"smiles": "CCC/C(O)=C1\\C(=O)CC(C)(C)CC1=Nc1ccccc1OC", "Potency": "inconclusive: 25.9 µM [inhibitor, single point]"}
{"smiles": "Cc1ccc(C(=O)CSc2nc3ccccc3o2)cc1", "Potency": "inconclusive: 20.6 µM [activator, partial curve]"}
{"smiles": "O=C(O)c1cccc2c1-c1ccccc1/C2=N\\Nc1ccccc1", "Potency": "inconclusive: 5.17 µM [activator, full curve]"}
{"smiles": "COc1cc(F)cc(-c2ccc3c(c2)c(C#Cc2ccsc2)c(-c2cc(OC)cc(OC)c2)n3C)c1", "Potency": "inconclusive: 18.3 µM [activator, partial curve, poor fit]"}
{"smiles": "CC(C)(C)C1CCc2c(sc(NC(=O)c3ccco3)c2C(N)=O)C1", "note": "(centres undefined)", "Potency": "inconclusive: 2.59 µM [activator, full curve]"}
{"smiles": "CCOC(=O)N1CCN(C(=O)CSc2ccccc2)CC1", "Potency": "inconclusive: 18.4 µM [activator, partial curve, poor fit]"}
{"smiles": "O=C(/C=C/c1ccccc1)C1=C(O)C(=O)N(CCO)C1c1ccc2c(c1)OCO2", "note": "(centres undefined)", "activity change, negative = inhibition": "inactive: -9.97%"}
{"smiles": "Cc1cccc(N2CCN(C(=O)Cn3ccc4ccccc4c3=O)CC2)c1C", "Potency": "inconclusive: 23.1 µM [inhibitor, single point]"}
{"smiles": "COc1ccc(NC(=O)Cc2nnc(SCC(=O)c3ccccc3)n2C)cc1", "activity change, negative = inhibition": "inactive: 16%"}
{"smiles": "COc1ccc(CN2C(=O)[C@@H]3C(c4ccc(F)cc4)=NO[C@@H]3C2=O)cc1", "activity change, negative = inhibition": "inactive: 1.29%"}
{"smiles": "Cc1ccc2nc(-c3ccc(NC(=O)COC(=O)c4ccco4)cc3)sc2c1", "Potency": "inconclusive: 1.03 µM [activator, partial curve]"}
{"smiles": "O=C(COc1ccc([N+](=O)[O-])cc1Cl)Nc1ccc2[nH]c(=O)[nH]c2c1", "activity change, negative = inhibition": "inactive: -1.89%"}
{"smiles": "CSc1nccc(NC(=O)c2cccc(Br)c2)n1", "Potency": "inconclusive: 23.1 µM [inhibitor, single point]"}
{"smiles": "CCCc1nc2ccccc2c(=O)n1/N=C/c1ccc(O)cc1O", "Potency": "inconclusive: 12.6 µM [inhibitor, partial curve]"}
{"smiles": "CCOC(=O)c1cnc2c(OC)cccc2c1N1CCN(c2ccccc2OC)CC1", "Potency": "active: 10.3 µM"}
{"smiles": "CCO[C@@H]1OC(C(=O)N2CCOCC2)=C[C@H](c2ccc(C(F)(F)F)cc2)[C@H]1CCCO", "activity change, negative = inhibition": "inactive: -14.6%"}
{"smiles": "COc1ccc(S(=O)(=O)NCc2cccnc2)cc1NC(=O)c1ccc(C)cc1", "Potency": "inconclusive: 5.17 µM [inhibitor, single point]"}
{"smiles": "CCOC(=O)C1(CCc2ccccc2)CCN(C2Cc3ccccc3C2)CC1", "Potency": "inconclusive: 29.1 µM [inhibitor, partial curve, poor fit]"}
{"smiles": "COc1ccc(OC)c(Nc2nc(C)nc3c2oc2ccccc23)c1", "Potency": "inconclusive: 20.6 µM [inhibitor, single point]"}
{"smiles": "CN(C(=O)CSc1nncc2ccccc12)C1CCCCC1", "Potency": "inconclusive: 25.9 µM [activator, partial curve, poor fit]"}
{"smiles": "COc1cc(C)ccc1OCc1cc(C(=O)NC(C)Cn2cncn2)no1", "note": "(centres undefined)", "Potency": "inconclusive: 4.61 µM [activator, partial curve]"}
{"smiles": "Cn1nnnc1SCc1nc2ccccc2[nH]1", "Potency": "inconclusive: 22.4 µM [activator, single point]"}
{"smiles": "CC(C)C[C@H](NC(=O)c1nc[nH]c1C(=O)N1CCc2ccccc2C1)C(=O)OC(C)(C)C", "activity change, negative = inhibition": "inactive: -29.2%"}
{"smiles": "CCCc1ccc(OCc2ccc(C(=O)OC)o2)c(OC)c1", "Potency": "inconclusive: 18.4 µM [activator, partial curve]"}
{"smiles": "Cc1cc(N2CCOCC2)nc2ccc(NC(=O)CCC(=O)N3CCN(c4ccccc4F)CC3)cc12", "Potency": "inconclusive: 29.1 µM [activator, single point]"}
{"smiles": "CCOC(=O)N1CCN(C(=O)CSc2ccc(-c3ccc(OC)c(OC)c3)nn2)CC1", "Potency": "inconclusive: 29.1 µM [inhibitor, single point]"}
{"smiles": "CN(Cc1cccs1)C(=O)CN1C(=O)c2ccccc2S1(=O)=O", "Potency": "inconclusive: 16.4 µM [activator, partial curve]"}
{"smiles": "CN(C)CCNc1ncnc2c1cnn2-c1ccc(Cl)cc1", "Potency": "inconclusive: 18.4 µM [activator, partial curve]"}
{"smiles": "COCCn1c(SCC(=O)Nc2ccccc2)nnc1-c1ccoc1C", "activity change, negative = inhibition": "inactive: 7%"}
{"smiles": "O=C(CCNC(=O)c1ccc(Cl)cc1)NCc1cccc(C(F)(F)F)c1", "Potency": "inconclusive: 16.4 µM [inhibitor, single point]"}
{"smiles": "COC(=O)/C=C/c1oc2ccccc2c1C", "activity change, negative = inhibition": "inactive: 4.45%"}
{"smiles": "Cc1cc(NC(=O)c2oc3ccccc3c2C)ccc1-n1cnnn1", "activity change, negative = inhibition": "inactive: 16.3%"}
{"smiles": "Cc1cccc(OCCn2nnc3ccccc32)c1C", "Potency": "inconclusive: 18.3 µM [activator, partial curve]"}
{"smiles": "CCOC(=O)N1N=C(C)CC1(O)c1ccc(Cl)cc1", "note": "(centres undefined)", "activity change, negative = inhibition": "inactive: 4.09%"}
{"smiles": "Cc1ccc(CN2CC(C(=O)NCC(=O)Nc3c(C)cccc3C)CC2=O)cc1", "note": "(centres undefined)", "activity change, negative = inhibition": "inactive: 13.8%"}
{"smiles": "COc1ccc(N(CC(=O)Nc2ccc3c(c2)OCCO3)S(C)(=O)=O)c(OC)c1", "Potency": "inconclusive: 29.1 µM [activator, single point]"}
{"smiles": "O=C(CSc1nnnn1-c1ccc(O)cc1)N1N=C(c2ccc3ccccc3c2)CC1c1ccccc1", "note": "(centres undefined)", "Potency": "inconclusive: 5.17 µM [inhibitor, single point]"}
{"smiles": "Cc1cc(S(=O)(=O)N2CCN(c3ccc(F)cc3)CC2)c(C)s1", "Potency": "inconclusive: 23.1 µM [inhibitor, single point]"}
